Source: PMC10630885
No constants are given. Whether binding was seen depends on the method and setting. Binding seen in cells or lysates may run through a third protein. Some entries that bind do so weakly or less than the wild type. For some assays here: Tags and fused reporters may be left off the sequences shown.

By UniProt entry, the sequences of proteins in these tests, tags left out. Residues count along the entry.
UniProt P11021, residues 19-654: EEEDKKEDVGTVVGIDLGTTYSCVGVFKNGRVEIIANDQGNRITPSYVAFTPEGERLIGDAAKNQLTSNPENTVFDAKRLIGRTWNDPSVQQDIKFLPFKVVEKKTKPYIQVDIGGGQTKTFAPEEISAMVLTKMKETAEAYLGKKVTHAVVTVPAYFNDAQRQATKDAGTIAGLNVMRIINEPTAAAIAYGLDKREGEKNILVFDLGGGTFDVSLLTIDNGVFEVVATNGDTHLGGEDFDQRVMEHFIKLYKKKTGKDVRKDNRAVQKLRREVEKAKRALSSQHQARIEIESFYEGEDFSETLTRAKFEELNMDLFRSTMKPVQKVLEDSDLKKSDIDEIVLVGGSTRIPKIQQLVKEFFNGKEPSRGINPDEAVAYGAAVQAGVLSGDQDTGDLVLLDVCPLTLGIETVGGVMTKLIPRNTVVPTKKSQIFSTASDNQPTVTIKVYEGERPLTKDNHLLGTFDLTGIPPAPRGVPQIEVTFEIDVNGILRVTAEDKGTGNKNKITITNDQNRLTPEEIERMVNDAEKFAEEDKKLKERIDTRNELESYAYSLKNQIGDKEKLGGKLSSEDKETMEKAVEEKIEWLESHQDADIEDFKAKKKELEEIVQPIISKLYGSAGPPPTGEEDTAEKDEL
UniProt P30101, residues 25-505: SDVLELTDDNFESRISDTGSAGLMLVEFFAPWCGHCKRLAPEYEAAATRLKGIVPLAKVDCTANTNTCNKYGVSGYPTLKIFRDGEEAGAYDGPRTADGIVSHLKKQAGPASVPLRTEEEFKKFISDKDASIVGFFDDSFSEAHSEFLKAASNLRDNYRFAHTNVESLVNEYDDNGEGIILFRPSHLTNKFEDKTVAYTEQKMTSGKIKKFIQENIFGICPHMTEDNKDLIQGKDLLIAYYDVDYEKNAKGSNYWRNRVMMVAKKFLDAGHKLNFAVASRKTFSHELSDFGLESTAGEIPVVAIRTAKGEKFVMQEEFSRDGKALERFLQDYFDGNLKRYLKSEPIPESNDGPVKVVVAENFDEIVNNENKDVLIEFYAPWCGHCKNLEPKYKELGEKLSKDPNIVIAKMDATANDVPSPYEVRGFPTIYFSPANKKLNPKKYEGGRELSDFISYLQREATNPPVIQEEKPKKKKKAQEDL

Key:
[1] = target: T1, HA-tagged NRF3-BioID fusion protein (human) (UniProt Q9Y4A8); assay: co-IP; anti-HA magnetic beads, overnight at 4°C; lysates of transduced SCC13 cells cultured with or without Dox (1 μg/ml) and with MG-132 (10 μM); IP buffer 0.05% NP-40, 10% glycerol, 150 mM NaCl, 5 mM HEPES pH 7.4, 5 mM EDTA, 0.25% deoxycholate; partners detected by Western blot
T1 sequence: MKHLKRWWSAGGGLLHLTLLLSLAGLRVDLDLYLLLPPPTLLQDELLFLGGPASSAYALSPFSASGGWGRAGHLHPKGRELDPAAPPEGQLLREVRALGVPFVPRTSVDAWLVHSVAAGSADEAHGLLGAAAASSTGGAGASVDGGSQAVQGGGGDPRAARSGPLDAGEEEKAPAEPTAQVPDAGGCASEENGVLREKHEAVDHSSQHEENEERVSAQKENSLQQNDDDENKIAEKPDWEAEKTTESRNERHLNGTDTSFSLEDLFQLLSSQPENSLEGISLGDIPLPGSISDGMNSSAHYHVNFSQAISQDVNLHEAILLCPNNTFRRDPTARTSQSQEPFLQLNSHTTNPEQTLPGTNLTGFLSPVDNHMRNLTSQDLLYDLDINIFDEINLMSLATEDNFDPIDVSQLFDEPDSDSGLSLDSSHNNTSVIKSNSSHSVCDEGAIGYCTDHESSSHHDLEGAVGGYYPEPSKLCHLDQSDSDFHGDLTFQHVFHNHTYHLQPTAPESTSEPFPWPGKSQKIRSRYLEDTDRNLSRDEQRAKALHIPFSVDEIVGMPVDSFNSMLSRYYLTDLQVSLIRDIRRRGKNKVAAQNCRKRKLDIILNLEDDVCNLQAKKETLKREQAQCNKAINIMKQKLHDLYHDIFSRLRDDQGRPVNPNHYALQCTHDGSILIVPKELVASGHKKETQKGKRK

[2] = target: T2, NRF3 (endogenous) (human (endogenous in SCC13)) (UniProt Q9Y4A8); assay: proximity ligation; Duolink In Situ Red kit on fixed, permeabilised SCC13 cells; transduced cells (1 μg/ml Dox, 24 h) with anti-HA and anti-PDIA3; SCC13 wt cells with anti-NRF3 and anti-PDIA3 or anti-HSPA5
T2 sequence: T1 sequence

[3] = target: T1, HA-tagged NRF3-BioID fusion protein (human); assay: as above

Row | binding [1] | binding [2] | binding [3] | Substance
1 | binds | binds |  | heat shock protein A5 (HSPA5) (from UniProt P11021 19-654)
2 | binds | binds | binds | protein disulfide-isomerase A3 (PDIA3) (from UniProt P30101 25-505)
